Source: the supplement of paper PMC4604168 (melanoma cell lines)
The list shows a part of the results. Single values are uncertain, as repeats are few or missing.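 Imaging used 1,536-well plates; nuclei positive for cleaved PARP by antibody were divided by total DNA-stained nuclei to yield the apoptosis fraction. Doses for screening kept most cells viable, and cell lines differ markedly in resting and induced cleaved-PARP levels.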

Experiments:
Experiment in all cases: cleaved PARP positive nuclei fraction relative to DMSO control; melanoma cells; higher = more apoptosis
Conditions in all cases: library dose: low library concentration; 72 h
501Mel = test system: 501Mel
A101D = test system: A101D
A2058 = test system: A2058
A375 = test system: A375
C32 = test system: C32
CBRC008 = test system: CBRC008 (line from a melanoma biopsy)
CBRC014 = test system: CBRC014 (line from a melanoma biopsy)
CBRC016 = test system: CBRC016 (line from a melanoma biopsy)
CBRC017 = test system: CBRC017 (line from a melanoma biopsy)

Row | SMILES | cleaved PARP positive nuclei fraction (501Mel) | cleaved PARP positive nuclei fraction (A101D) | cleaved PARP positive nuclei fraction (A2058) | cleaved PARP positive nuclei fraction (A375) | cleaved PARP positive nuclei fraction (C32) | cleaved PARP positive nuclei fraction (CBRC008) | cleaved PARP positive nuclei fraction (CBRC014) | cleaved PARP positive nuclei fraction (CBRC016) | cleaved PARP positive nuclei fraction (CBRC017)
1 | O=c1[nH]nc(Sc2ncc([N+](=O)[O-])s2)n1-c1ccc2c(c1)OCCO2 + O=C(O)[C@@H]1[O][Sb](=[O])([O][Sb]2(=[O])[O][C@H]([C@H](O)CO)[C@H](O)[C@H](C(=O)O)[O]2)[O][C@H]([C@H](O)CO)[C@@H]1O [stibogluconate] (first compound 0.2 µM, partner dose 2 µM) | 94.6% | 92.3% | 121% | 128% | 73.5% | 91.1% | 99.9% | 108% | 89.2%
2 | O=c1[nH]nc(Sc2ncc([N+](=O)[O-])s2)n1-c1ccc2c(c1)OCCO2 + Cn1sc(=O)n(Cc2ccccc2)c1=O [TDZD-8] (first compound 0.2 µM, partner dose 0.4 µM) | 99.1% | 127% | 86.9% | 102% | 171% | 88.5% | 105% | 55.9% | 116%
3 | N#CC[C@H](C1CCCC1)n1cc(-c2ncnc3[nH]ccc23)cn1 [ruxolitinib] + C[C@]1(O)C[C@@H](c2nc(-c3ccc4ccc(-c5ccccc5)nc4c3)c3c(N)nccn32)C1 [OSI906] (first compound 1 µM, partner dose 0.4 µM) | 59.9% | 157% | 118% | 408% | 82.6% | 139% | 97.8% | 115% | 126%
4 | Cc1ccc(Nc2nccc(N(C)c3ccc4c(C)n(C)nc4c3)n2)cc1S(N)(=O)=O [Pazopanib] + C[C@@H](N)c1ccc(C(=O)Nc2ccnc3[nH]ccc23)cc1 [RKI983] (first compound 0.4 µM, partner dose 0.4 µM) | 53.3% | 98.1% | 123% | 108% | 93.5% | 163% | 99.1% | 59.9% | 108%
5 | Cc1ccc(Nc2nccc(N(C)c3ccc4c(C)n(C)nc4c3)n2)cc1S(N)(=O)=O [Pazopanib] + CO[C@H]1C[C@@H]2CC[C@@H](C)[C@@](O)(O2)C(=O)C(=O)N2CCCC[C@H]2C(=O)O[C@H]([C@H](C)C[C@@H]2CC[C@@H](OCCO)[C@H](OC)C2)CC(=O)[C@H](C)/C=C(\C)[C@@H](O)[C@@H](OC)C(=O)[C@H](C)C[C@H](C)/C=C/C=C/C=C/1C [everolimus] (first compound 0.4 µM, partner dose 0.02 µM) | 281% | 33.7% | 47.7% | 868% | 75.4% | 191% | 102% | 214% | 93.5%
6 | O=C(Nc1cc(C(F)(F)F)cc(C(F)(F)F)c1)c1cc(Cl)ccc1O + O=C(/C=C/c1cccnc1)NCCCCC1CCN(C(=O)c2ccccc2)CC1 [FK866] (first compound 0.016 µM, partner dose 0.01 µM) | 94.1% | 66.6% | 101% | 107% | 68.1% | 2930% | 81.9% | 317% | 944%
7 | CC[C@]1(O)C[C@H]2CN(CCc3c([nH]c4ccccc34)[C@@](C(=O)OC)(c3cc4c(cc3OC)N(C=O)[C@H]3[C@@](O)(C(=O)OC)[C@H](OC(C)=O)[C@]5(CC)C=CCN6CC[C@]43[C@@H]65)C2)C1 [vincristine] + CC(=O)c1c(C)c2cnc(Nc3ccc(N4CCNCC4)cn3)nc2n(C2CCCC2)c1=O [palbociclib] (first compound 0.0001 µM, partner dose 0.04 µM) | 101% | 139% | 2700% | 333% | 118% | 169% | 113% | 71.2% | 159%
8 | O=C(Nc1cc(C(F)(F)F)cc(C(F)(F)F)c1)c1cc(Cl)ccc1O + CCN(CC)CCNC(=O)c1c(C)[nH]c(/C=C2\C(=O)Nc3ccc(F)cc32)c1C [sunitinib] (first compound 0.016 µM, partner dose 0.4 µM) | 130% | 175% | 136% | 110% | 80% | 75.2% | 96.4% | 307% | 110%
9 | O=C(Nc1cc(C(F)(F)F)cc(C(F)(F)F)c1)c1cc(Cl)ccc1O + Cc1cc(Nc2cc(N3CCN(C)CC3)nc(/C=C/c3ccccc3)n2)n[nH]1 [ENMD2076] (first compound 0.016 µM, partner dose 0.04 µM) | 49.7% | 104% | 140% | 152% | 77.2% | 44.8% | 96% | 256% | 84.2%
10 | CC[C@]1(O)C[C@H]2CN(CCc3c([nH]c4ccccc34)[C@@](C(=O)OC)(c3cc4c(cc3OC)N(C=O)[C@H]3[C@@](O)(C(=O)OC)[C@H](OC(C)=O)[C@]5(CC)C=CCN6CC[C@]43[C@@H]65)C2)C1 [vincristine] + Cc1ccc(Nc2nccc(N(C)c3ccc4c(C)n(C)nc4c3)n2)cc1S(N)(=O)=O [Pazopanib] (first compound 0.0001 µM, partner dose 0.4 µM) | 90.2% | 147% | 299% | 263% | 81.3% | 290% | 113% | 92.6% | 87.8%

From no. 7 up to 8, as listed above:
Row | SMILES | cleaved PARP positive nuclei fraction (501Mel) | cleaved PARP positive nuclei fraction (A101D) | cleaved PARP positive nuclei fraction (A2058) | cleaved PARP positive nuclei fraction (A375) | cleaved PARP positive nuclei fraction (C32) | cleaved PARP positive nuclei fraction (CBRC008) | cleaved PARP positive nuclei fraction (CBRC014) | cleaved PARP positive nuclei fraction (CBRC016) | cleaved PARP positive nuclei fraction (CBRC017)
7 | CC[C@]1(O)C[C@H]2CN(CCc3c([nH]c4ccccc34)[C@@](C(=O)OC)(c3cc4c(cc3OC)N(C=O)[C@H]3[C@@](O)(C(=O)OC)[C@H](OC(C)=O)[C@]5(CC)C=CCN6CC[C@]43[C@@H]65)C2)C1 [vincristine] + CC(=O)c1c(C)c2cnc(Nc3ccc(N4CCNCC4)cn3)nc2n(C2CCCC2)c1=O [palbociclib] (first compound 0.0001 µM, partner dose 0.04 µM) | 101% | 139% | 2700% | 333% | 118% | 169% | 113% | 71.2% | 159%
8 | O=C(Nc1cc(C(F)(F)F)cc(C(F)(F)F)c1)c1cc(Cl)ccc1O + CCN(CC)CCNC(=O)c1c(C)[nH]c(/C=C2\C(=O)Nc3ccc(F)cc32)c1C [sunitinib] (first compound 0.016 µM, partner dose 0.4 µM) | 130% | 175% | 136% | 110% | 80% | 75.2% | 96.4% | 307% | 110%
